Data published in patent US11903955B2, “Methods of treating heart failure with reduced ejection fraction” (ASTRAZENECA AB, priority 2019, dated 2024).

Test system: patients with chronic heart failure with reduced ejection fraction (LVEF ≤40%)
Procedure: Data from all randomly assigned patients were included in the analyses of the primary and secondary outcomes, according to the intention-to-treat principle. Baseline characteristics were summarized as means and standard deviations, medians and inter-quartile ranges, or percentages. Longitudinal measures, such as glycated hemoglobin level (HbA1c) and body weight, were analyzed using mixed model for repeated measurements, and the least-squares mean differences between treatment groups were estimated, together with 95% confidence intervals. Time-to-event data were evaluated with the use of Kaplan-Meier estimates and Cox proportional hazards models, stratified by diabetes status, with history of heart failure hospitalization and treatment as fixed-effect factors (for the renal endpoint, baseline eGFR was included instead of history of heart failure hospitalization); hazard ratios, 95% confidence intervals, and two-sided P values were calculated with the use of the Cox models.

CCOc1ccc(Cc2cc([C@@H]3O[C@H](CO)[C@@H](O)[C@H](O)[C@H]3O)ccc2Cl)cc1 [Dapagliflozin, dapagliflozin]
Change in hematocrit (baseline to 8 month (Visit 6)): 2.31 ± 3.90%
Hematocrit, between group difference (95% CI) (baseline to 8 month, dapagliflozin vs placebo): 2.49 (2.26 to 2.73), p < 0.001%
